Measured values published in paper doi:10.1101/2024.05.06.592854.
Read-outs that look alike come from different tables or passages of the source. These are yes or no findings as the source states them, for the method shown. Binding seen in cells or lysates may run through a third protein. Some binding calls cover weakened binding; strength is not graded here. Sequences can lack the tags named with a protein.

By UniProt entry, the sequences of proteins in these tests, tags left out.
UniProt Q9UQE7: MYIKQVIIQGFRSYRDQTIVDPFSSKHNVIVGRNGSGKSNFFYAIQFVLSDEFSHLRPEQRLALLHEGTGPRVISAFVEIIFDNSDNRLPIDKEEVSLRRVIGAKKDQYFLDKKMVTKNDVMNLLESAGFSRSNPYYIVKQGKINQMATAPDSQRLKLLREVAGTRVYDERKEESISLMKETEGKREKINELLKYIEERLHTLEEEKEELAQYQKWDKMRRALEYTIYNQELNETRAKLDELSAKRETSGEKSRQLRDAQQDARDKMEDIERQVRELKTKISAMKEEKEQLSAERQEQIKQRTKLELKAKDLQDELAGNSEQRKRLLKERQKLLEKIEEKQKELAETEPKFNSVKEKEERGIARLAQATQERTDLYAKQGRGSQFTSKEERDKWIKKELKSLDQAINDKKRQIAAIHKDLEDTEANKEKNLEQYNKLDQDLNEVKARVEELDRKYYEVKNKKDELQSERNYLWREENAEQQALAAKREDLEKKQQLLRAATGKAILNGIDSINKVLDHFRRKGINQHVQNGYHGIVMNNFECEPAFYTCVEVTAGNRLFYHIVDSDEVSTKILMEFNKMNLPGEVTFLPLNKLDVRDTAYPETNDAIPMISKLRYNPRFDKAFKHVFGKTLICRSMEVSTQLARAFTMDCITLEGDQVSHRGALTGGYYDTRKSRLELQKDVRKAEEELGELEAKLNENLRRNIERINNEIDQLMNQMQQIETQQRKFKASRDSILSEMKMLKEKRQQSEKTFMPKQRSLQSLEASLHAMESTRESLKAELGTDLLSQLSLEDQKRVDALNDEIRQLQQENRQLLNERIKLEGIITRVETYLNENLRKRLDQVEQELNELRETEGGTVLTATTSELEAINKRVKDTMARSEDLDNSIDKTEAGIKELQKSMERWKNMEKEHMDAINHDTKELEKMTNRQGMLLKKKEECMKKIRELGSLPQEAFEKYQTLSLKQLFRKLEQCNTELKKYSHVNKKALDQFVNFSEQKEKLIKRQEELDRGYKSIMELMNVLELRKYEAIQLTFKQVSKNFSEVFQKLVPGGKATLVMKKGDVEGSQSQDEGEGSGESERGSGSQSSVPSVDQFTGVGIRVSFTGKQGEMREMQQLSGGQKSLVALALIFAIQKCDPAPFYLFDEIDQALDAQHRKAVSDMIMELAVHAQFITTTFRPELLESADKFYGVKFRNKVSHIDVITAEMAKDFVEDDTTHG
UniProt Q4G0F5: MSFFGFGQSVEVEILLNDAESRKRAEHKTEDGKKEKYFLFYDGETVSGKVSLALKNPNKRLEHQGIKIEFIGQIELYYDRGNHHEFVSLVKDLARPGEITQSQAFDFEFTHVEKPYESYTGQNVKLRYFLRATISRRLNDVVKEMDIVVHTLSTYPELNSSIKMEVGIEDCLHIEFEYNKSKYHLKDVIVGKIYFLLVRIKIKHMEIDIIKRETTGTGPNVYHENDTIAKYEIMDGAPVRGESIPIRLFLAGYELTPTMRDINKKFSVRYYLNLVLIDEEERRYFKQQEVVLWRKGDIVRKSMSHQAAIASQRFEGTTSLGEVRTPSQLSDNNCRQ

Columns and labels:
Test in all cases: co-IP
[1] = target: T1, 3xFLAG-NEK1 (NIMA-related kinase 1), expressed in HEK cells (human) (UniProt Q96PY6)
T1 sequence: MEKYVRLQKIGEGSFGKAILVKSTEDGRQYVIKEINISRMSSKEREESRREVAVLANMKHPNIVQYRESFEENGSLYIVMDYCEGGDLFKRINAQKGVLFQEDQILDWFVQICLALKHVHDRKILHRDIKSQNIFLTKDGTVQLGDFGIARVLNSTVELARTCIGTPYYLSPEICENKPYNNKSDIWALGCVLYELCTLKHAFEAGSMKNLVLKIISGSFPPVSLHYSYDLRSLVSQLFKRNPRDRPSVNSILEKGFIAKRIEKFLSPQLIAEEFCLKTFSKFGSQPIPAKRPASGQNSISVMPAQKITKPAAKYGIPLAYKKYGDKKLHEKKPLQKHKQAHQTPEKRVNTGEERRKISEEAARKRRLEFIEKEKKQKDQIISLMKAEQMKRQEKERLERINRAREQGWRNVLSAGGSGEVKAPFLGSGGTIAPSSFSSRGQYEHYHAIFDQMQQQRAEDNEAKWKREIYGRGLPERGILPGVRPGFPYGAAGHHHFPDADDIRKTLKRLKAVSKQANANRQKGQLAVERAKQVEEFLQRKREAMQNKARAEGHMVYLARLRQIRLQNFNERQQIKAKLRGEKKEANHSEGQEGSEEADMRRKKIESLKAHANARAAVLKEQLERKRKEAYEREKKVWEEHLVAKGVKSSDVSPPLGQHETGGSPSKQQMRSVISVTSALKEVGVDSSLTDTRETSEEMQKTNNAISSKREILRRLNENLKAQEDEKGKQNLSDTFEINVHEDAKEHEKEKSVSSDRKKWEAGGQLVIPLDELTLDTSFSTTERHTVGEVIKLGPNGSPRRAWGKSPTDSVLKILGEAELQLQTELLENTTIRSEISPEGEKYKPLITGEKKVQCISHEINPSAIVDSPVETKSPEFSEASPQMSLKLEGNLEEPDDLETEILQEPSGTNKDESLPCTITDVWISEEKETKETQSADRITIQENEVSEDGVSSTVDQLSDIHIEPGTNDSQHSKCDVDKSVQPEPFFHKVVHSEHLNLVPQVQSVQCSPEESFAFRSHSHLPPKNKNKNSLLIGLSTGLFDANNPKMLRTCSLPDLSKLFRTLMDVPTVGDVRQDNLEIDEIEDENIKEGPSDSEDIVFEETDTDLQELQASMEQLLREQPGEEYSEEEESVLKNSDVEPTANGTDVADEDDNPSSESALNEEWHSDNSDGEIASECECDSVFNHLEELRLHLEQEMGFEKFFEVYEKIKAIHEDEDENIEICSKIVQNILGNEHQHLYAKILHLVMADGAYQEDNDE

[2] = target: T2, 3xFLAG-NEK1 (NIMA-related kinase 1), expressed in human motor neurons (hsyn-3XFLAG-NEK1 lentivirus) (human) (UniProt Q96PY6)
T2 sequence: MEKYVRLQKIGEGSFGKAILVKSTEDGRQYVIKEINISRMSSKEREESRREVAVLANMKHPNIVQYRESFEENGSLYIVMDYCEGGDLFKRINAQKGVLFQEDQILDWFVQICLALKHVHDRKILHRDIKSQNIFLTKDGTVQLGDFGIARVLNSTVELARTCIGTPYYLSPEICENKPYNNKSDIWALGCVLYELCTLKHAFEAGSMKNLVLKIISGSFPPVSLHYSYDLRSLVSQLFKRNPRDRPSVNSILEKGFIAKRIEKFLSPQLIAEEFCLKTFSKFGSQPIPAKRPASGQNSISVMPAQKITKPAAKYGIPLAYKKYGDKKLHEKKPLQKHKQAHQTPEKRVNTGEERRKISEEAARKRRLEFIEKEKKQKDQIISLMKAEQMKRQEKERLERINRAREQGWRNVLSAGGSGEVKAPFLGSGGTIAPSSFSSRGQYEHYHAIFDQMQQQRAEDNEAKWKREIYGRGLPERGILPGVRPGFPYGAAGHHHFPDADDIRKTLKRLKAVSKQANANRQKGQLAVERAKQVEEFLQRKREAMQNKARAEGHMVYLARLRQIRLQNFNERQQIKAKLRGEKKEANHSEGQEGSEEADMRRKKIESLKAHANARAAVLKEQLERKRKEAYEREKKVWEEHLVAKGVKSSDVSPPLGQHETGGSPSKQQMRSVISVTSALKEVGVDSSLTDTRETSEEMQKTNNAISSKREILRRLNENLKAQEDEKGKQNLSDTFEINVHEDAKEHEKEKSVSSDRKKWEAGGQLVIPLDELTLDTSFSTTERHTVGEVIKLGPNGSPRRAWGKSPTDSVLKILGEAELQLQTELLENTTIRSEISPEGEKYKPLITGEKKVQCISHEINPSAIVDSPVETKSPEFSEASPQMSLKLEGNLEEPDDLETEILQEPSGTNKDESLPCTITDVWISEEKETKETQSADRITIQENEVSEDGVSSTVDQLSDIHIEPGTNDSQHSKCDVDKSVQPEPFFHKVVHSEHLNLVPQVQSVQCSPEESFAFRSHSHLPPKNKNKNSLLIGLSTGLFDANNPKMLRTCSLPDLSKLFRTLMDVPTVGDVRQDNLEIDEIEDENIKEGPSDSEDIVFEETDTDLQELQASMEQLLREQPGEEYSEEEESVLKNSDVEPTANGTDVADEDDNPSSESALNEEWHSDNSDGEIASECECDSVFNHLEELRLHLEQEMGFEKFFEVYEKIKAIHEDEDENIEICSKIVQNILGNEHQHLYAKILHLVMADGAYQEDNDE

[3] = target: T1, 3xFLAG-NEK1 (NIMA-related kinase 1), expressed in HEK cells (human); remark: listed apart in the source
[4] = target: T2, 3xFLAG-NEK1 (NIMA-related kinase 1), expressed in human motor neurons (hsyn-3XFLAG-NEK1 lentivirus) (human); remark: listed apart in the source

Molecule: SMC3 (cohesin complex subunit), HEK cells (from UniProt Q9UQE7 1-1217)
- binding [1]: binds

Molecule: SMC3 (cohesin complex subunit), motor neurons (from UniProt Q9UQE7 1-1217)
- binding [2]: binds

Molecule: VPS26B (retromer subunit), HEK cells (from UniProt Q4G0F5 1-336)
- binding [1]: binds

Molecule: VPS26B (retromer subunit), motor neurons (from UniProt Q4G0F5 1-336)
- binding [2]: binds

B1: WASHC4 (WASH complex component), HEK cells (protein, UniProt Q2M389 1-1173)
chain: MAVETLSPDWEFDRVDDGSQKIHAEVQLKNYGKFLEEYTSQLRRIEDALDDSIGDVWDFNLDPIALKLLPYEQSSLLELIKTENKVLNKVITVYAALCCEIKKLKYEAETKFYNGLLFYGEGATDASMVEGDCQIQMGRFISFLQELSCFVTRCYEVVMNVVHQLAALYISNKIAPKIIETTGVHFQTMYEHLGELLTVLLTLDEIIDNHITLKDHWTMYKRLLKSVHHNPSKFGIQEEKLKPFEKFLLKLEGQLLDGMIFQACIEQQFDSLNGGVSVSKNSTFAEEFAHSIRSIFANVEAKLGEPSEIDQRDKYVGICGLFVLHFQIFRTIDKKFYKSLLDICKKVPAITLTANIIWFPDNFLIQKIPAAAKLLDRKSLQAIKIHRDTFLQQKAQSLTKDVQSYYVFVSSWMMKMESILSKEQRMDKFAEDLTNRCNVFIQGFLYAYSISTIIKTTMNLYMSMQKPMTKTSVKALCRLVELLKAIEHMFYRRSMVVADSVSHITQHLQHQALHSISVAKKRVISDKKYSEQRLDVLSALVLAENTLNGPSTKQRRLIVSLALSVGTQMKTFKDEELFPLQVVMKKLDLISELRERVQTQCDCCFLYWHRAVFPIYLDDVYENAVDAARLHYMFSALRDCVPAMMHARHLESYEILLDCYDKEIMEILNEHLLDKLCKEIEKDLRLSVHTHLKLDDRNPFKVGMKDLALFFSLNPIRFFNRFIDIRAYVTHYLDKTFYNLTTVALHDWATYSEMRNLATQRYGLVMTEAHLPSQTLEQGLDVLEIMRNIHIFVSRYLYNLNNQIFIERTSNNKHLNTINIRHIANSIRTHGTGIMNTTVNFTYQFLKKKFYIFSQFMYDEHIKSRLIKDIRFFREIKDQNDHKYPFDRAEKFNRGIRKLGVTPEGQSYLDQFRQLISQIGNAMGYVRMIRSGGLHCSSNAIRFVPDLEDIVNFEELVKEEGLAEETLKAARHLDSVLSDHTRNSAEGTEYFKMLVDVFAPEFRRPKNIHLRNFYIIVPPLTLNFVEHSISCKEKLNKKNKIGAAFTDDGFAMGVAYILKLLDQYREFDSLHWFQSVREKYLKEIRAVAKQQNVQSASQDEKLLQTMNLTQKRLDVYLQEFELLYFSLSSARIFFRADKTAAEENQEKKEKEEETKTSNGDLSDSTVSADPVVK
- binding [3]: no binding

B2: WASHC4 (WASH complex component), motor neurons (protein, UniProt Q2M389 1-1173)
chain: MAVETLSPDWEFDRVDDGSQKIHAEVQLKNYGKFLEEYTSQLRRIEDALDDSIGDVWDFNLDPIALKLLPYEQSSLLELIKTENKVLNKVITVYAALCCEIKKLKYEAETKFYNGLLFYGEGATDASMVEGDCQIQMGRFISFLQELSCFVTRCYEVVMNVVHQLAALYISNKIAPKIIETTGVHFQTMYEHLGELLTVLLTLDEIIDNHITLKDHWTMYKRLLKSVHHNPSKFGIQEEKLKPFEKFLLKLEGQLLDGMIFQACIEQQFDSLNGGVSVSKNSTFAEEFAHSIRSIFANVEAKLGEPSEIDQRDKYVGICGLFVLHFQIFRTIDKKFYKSLLDICKKVPAITLTANIIWFPDNFLIQKIPAAAKLLDRKSLQAIKIHRDTFLQQKAQSLTKDVQSYYVFVSSWMMKMESILSKEQRMDKFAEDLTNRCNVFIQGFLYAYSISTIIKTTMNLYMSMQKPMTKTSVKALCRLVELLKAIEHMFYRRSMVVADSVSHITQHLQHQALHSISVAKKRVISDKKYSEQRLDVLSALVLAENTLNGPSTKQRRLIVSLALSVGTQMKTFKDEELFPLQVVMKKLDLISELRERVQTQCDCCFLYWHRAVFPIYLDDVYENAVDAARLHYMFSALRDCVPAMMHARHLESYEILLDCYDKEIMEILNEHLLDKLCKEIEKDLRLSVHTHLKLDDRNPFKVGMKDLALFFSLNPIRFFNRFIDIRAYVTHYLDKTFYNLTTVALHDWATYSEMRNLATQRYGLVMTEAHLPSQTLEQGLDVLEIMRNIHIFVSRYLYNLNNQIFIERTSNNKHLNTINIRHIANSIRTHGTGIMNTTVNFTYQFLKKKFYIFSQFMYDEHIKSRLIKDIRFFREIKDQNDHKYPFDRAEKFNRGIRKLGVTPEGQSYLDQFRQLISQIGNAMGYVRMIRSGGLHCSSNAIRFVPDLEDIVNFEELVKEEGLAEETLKAARHLDSVLSDHTRNSAEGTEYFKMLVDVFAPEFRRPKNIHLRNFYIIVPPLTLNFVEHSISCKEKLNKKNKIGAAFTDDGFAMGVAYILKLLDQYREFDSLHWFQSVREKYLKEIRAVAKQQNVQSASQDEKLLQTMNLTQKRLDVYLQEFELLYFSLSSARIFFRADKTAAEENQEKKEKEEETKTSNGDLSDSTVSADPVVK
- binding [4]: no binding
